Measurements taken from paper PMC7862700.
The list shows a part of the results. Construct or isoform of the protein are uncertain.

Each sequence was assayed against T1, ETS1 (UniProt P14921) (assay: DAPPL (digital affinity profiling via proximity ligation, sequencing)). Conditions: 10 mM Tris-HCl pH 7.5, 50 mM NaCl, 1 mM DTT, 4% glycerol, room temperature, 30 min; GST-TFs on glutathione beads, 16-mer random dsDNA library, 0.1% …; high values mean tight binding; double strand, one strand shown; scale: fold enrichment (6-mer frequency, TF over GST control).
T1 sequence: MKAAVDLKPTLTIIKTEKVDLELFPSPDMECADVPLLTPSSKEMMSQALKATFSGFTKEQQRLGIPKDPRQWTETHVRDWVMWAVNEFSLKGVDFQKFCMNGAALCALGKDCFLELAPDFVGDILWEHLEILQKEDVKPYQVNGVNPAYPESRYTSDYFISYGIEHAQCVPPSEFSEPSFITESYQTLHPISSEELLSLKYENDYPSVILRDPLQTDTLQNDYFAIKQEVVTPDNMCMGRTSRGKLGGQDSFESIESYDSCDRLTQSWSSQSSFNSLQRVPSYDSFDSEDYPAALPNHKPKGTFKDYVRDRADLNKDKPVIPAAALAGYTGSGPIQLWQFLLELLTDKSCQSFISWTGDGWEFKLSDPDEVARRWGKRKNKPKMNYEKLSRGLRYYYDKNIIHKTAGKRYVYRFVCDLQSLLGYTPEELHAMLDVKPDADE
ACACAA was tested, and the binding signal was 1.26. In the case of ACAACA, the binding signal is reported as 1.22. Sequence TCTACA has a binding signal of 1.25. GATGTC gave a binding signal of 1.23. With ACTGGA the binding signal was 1.08. GCTGTT was tested, and the binding signal was 1.08. With CCCGTA the binding signal was 1.22. ACCTCT gave a binding signal of 1.43. In the case of TGACAA, the binding signal is reported as 1.28. For TAATTC, the binding signal was 1.43. For AATCTA, the binding signal was 1.15. Sequence TATATT has a binding signal of 1.47. For CTGAAA, the binding signal was 1.09. GTTCAA was tested, and the binding signal was 1.17. Sequence CTTATT has a binding signal of 1.56. Work on GCTCCG yielded a binding signal of 1.29. Work on GCAAAT yielded a binding signal of 1.04. For ACCCTT, the binding signal was 1.24. Work on CTTTGT yielded a binding signal of 1.13. In the case of GTTTTG, the binding signal is reported as 1.18. TCTACC gave a binding signal of 1.48. Work on TACCTT yielded a binding signal of 1.51. In the case of ATTTTG, the binding signal is reported as 1.3. GTTAAT showed a binding signal of 1.04. TTATAA gave a binding signal of 1.27. Work on CTCATC yielded a binding signal of 1.26. For AATTGA, the binding signal was 1.13. ATTCAC gave a binding signal of 1.28. In the case of ACGATA, the binding signal is reported as 1.17. CTACAG was tested, and the binding signal was 0.902. In the case of GGTACT, the binding signal is reported as 1.29. CTTCGT was tested, and the binding signal was 1.43. With CTGTAC the binding signal was 1.32. Sequence GCTATC has a binding signal of 1.06. For CAAATG, the binding signal was 1.13. ACGACC showed a binding signal of 1.25. Sequence GTTATC has a binding signal of 1.09. With ATTAGG the binding signal was 1.09. Sequence CTAAAT has a binding signal of 1.42. Sequence TACGGA has a binding signal of 1.38.
